The list shows a part of the results.
Experiments:
Assay in all cases: log2 fold change, soluble protein after heating vs DMSO (PISA); higher = thermal stabilisation; K562 lysate, 10 uM; active = over 0.2 and 3.5 SD of the protein, either way, in both replicates (recomputed)
erlotinib = compound: C#Cc1cccc(Nc2ncnc3cc(OCCOC)c(OCCOC)cc23)c1 [erlotinib]
Method in brief: (§1)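 Log-two fold change in thermal stability relative to solvent controls is reported from duplicates. For each sample, crude K562 extract from dounce-homogenised pellets in PBS pH 7.4 with 1 mM MgCl2, at 1 mg/mL protein, was treated with 10 μM compound for 30 min. Aliquots heated for 3 min across 48°C-58°C were pooled, brought to 0.5% NP-40 at 4°C and cleared at 21,000xg for 90 min. The supernatant was quantified by TMTpro 16plex LC-MS/MS with channel sums equalised.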

Sequences of proteins named here, by UniProt entry; tags and fusion partners are left off. A change or cut given only in a name is not applied to a line headed by its entry.
UniProt Q5JS54: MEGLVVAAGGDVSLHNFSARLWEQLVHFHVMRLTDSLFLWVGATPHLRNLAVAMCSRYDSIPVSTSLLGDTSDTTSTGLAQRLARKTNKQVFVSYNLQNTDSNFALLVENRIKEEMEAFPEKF
UniProt P62191: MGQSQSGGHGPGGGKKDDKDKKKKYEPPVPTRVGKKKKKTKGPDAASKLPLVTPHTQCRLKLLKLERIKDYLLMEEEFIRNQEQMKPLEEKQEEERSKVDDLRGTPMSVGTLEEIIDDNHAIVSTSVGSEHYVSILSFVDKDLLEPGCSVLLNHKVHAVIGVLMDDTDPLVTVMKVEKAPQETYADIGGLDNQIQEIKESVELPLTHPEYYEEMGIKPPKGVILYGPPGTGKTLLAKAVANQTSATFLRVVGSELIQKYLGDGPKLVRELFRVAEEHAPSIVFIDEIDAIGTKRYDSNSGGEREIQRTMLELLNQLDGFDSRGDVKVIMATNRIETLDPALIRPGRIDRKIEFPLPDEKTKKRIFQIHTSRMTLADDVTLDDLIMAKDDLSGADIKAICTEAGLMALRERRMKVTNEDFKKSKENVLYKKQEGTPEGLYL
UniProt Q7Z6K3: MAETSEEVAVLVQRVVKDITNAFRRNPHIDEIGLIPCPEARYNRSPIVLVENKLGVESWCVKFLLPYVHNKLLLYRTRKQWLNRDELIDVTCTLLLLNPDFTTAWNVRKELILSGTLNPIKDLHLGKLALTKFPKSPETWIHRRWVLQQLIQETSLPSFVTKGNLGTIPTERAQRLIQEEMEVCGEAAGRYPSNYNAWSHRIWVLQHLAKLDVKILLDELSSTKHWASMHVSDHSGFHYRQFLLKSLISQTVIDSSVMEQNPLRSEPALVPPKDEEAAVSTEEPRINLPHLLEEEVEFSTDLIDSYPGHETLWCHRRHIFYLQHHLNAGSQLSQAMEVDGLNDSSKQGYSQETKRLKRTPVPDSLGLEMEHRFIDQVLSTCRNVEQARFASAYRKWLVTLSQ
UniProt P18031: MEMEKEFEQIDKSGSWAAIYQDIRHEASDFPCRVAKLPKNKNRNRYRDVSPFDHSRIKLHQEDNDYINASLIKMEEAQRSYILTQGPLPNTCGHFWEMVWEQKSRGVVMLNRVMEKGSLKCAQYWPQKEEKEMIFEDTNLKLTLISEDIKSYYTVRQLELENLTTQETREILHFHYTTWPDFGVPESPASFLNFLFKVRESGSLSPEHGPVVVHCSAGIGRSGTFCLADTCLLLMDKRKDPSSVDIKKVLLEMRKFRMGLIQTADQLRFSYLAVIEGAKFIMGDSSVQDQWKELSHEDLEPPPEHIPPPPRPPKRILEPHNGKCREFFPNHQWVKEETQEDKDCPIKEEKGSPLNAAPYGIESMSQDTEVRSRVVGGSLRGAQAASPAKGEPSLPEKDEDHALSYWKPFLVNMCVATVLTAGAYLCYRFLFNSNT
UniProt Q13308: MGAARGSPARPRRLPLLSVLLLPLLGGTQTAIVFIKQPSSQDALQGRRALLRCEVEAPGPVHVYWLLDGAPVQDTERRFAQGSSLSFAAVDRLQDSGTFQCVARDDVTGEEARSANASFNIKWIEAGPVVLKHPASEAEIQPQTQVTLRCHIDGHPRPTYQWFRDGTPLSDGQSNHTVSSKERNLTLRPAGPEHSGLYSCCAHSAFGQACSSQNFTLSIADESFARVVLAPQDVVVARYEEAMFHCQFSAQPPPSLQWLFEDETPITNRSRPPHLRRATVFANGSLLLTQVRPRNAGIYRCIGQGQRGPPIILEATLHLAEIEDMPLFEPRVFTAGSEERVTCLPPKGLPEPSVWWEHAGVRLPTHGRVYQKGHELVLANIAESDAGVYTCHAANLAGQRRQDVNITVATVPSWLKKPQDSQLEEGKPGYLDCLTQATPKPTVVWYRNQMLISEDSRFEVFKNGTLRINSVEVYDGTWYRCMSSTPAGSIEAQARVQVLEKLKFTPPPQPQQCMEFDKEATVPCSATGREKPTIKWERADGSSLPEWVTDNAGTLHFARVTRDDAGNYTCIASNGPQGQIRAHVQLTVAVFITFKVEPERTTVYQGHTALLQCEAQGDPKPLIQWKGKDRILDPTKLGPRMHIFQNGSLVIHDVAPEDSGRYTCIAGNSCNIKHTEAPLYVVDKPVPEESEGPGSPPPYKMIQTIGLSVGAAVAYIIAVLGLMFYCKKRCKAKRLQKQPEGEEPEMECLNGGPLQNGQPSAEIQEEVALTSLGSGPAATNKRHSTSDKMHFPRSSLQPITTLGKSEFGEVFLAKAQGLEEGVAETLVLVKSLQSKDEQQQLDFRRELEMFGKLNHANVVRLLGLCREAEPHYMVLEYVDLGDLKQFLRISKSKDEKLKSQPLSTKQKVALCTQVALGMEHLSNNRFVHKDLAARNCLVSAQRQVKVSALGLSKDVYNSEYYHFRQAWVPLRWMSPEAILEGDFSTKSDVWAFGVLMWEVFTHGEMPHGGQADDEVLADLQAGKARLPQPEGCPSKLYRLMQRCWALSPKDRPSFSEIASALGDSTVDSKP
UniProt P28070, whole entry, looked up: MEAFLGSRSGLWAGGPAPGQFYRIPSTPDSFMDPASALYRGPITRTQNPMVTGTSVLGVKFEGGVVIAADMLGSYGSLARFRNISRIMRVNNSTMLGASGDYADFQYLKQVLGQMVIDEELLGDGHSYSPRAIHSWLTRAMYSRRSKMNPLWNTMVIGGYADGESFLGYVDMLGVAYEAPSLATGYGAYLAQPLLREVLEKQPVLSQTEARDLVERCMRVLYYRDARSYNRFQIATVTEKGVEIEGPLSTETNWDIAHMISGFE
UniProt P28072: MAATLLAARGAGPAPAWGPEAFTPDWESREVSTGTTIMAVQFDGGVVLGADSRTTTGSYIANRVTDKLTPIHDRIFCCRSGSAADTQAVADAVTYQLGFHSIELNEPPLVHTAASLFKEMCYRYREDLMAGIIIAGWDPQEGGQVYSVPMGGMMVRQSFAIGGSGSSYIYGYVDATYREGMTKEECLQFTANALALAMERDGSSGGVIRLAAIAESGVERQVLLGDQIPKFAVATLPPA
UniProt Q99952: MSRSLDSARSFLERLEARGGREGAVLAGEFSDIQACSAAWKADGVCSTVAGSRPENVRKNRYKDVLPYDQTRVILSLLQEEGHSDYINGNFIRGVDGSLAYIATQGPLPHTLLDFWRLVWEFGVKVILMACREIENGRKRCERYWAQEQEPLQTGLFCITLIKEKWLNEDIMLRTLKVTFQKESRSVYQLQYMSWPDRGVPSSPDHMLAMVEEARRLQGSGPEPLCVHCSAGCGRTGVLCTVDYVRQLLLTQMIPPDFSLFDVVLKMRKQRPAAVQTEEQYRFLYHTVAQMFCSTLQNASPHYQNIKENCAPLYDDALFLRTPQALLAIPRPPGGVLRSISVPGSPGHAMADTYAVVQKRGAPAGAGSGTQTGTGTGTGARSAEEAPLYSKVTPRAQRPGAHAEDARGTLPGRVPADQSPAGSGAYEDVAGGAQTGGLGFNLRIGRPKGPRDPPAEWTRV
UniProt P53801: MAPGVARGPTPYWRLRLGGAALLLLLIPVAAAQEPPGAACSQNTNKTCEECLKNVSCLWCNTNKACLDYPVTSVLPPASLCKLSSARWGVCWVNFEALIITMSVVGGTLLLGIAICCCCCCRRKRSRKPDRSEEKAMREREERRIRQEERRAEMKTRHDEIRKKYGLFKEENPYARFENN
UniProt O75475: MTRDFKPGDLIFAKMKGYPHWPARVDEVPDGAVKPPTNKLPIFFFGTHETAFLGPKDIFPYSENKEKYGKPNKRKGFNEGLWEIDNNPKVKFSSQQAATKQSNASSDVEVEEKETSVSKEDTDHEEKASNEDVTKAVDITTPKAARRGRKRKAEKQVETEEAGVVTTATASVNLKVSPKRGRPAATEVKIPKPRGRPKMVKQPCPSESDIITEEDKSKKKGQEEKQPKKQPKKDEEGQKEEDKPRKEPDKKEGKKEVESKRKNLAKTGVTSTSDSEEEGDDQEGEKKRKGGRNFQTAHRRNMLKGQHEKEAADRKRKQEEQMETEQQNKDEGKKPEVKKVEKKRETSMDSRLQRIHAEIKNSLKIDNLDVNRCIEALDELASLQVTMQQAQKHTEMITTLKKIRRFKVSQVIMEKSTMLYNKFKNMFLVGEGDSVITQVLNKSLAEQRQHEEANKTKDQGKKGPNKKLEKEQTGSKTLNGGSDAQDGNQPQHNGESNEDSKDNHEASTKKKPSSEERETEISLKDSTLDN
UniProt Q14997: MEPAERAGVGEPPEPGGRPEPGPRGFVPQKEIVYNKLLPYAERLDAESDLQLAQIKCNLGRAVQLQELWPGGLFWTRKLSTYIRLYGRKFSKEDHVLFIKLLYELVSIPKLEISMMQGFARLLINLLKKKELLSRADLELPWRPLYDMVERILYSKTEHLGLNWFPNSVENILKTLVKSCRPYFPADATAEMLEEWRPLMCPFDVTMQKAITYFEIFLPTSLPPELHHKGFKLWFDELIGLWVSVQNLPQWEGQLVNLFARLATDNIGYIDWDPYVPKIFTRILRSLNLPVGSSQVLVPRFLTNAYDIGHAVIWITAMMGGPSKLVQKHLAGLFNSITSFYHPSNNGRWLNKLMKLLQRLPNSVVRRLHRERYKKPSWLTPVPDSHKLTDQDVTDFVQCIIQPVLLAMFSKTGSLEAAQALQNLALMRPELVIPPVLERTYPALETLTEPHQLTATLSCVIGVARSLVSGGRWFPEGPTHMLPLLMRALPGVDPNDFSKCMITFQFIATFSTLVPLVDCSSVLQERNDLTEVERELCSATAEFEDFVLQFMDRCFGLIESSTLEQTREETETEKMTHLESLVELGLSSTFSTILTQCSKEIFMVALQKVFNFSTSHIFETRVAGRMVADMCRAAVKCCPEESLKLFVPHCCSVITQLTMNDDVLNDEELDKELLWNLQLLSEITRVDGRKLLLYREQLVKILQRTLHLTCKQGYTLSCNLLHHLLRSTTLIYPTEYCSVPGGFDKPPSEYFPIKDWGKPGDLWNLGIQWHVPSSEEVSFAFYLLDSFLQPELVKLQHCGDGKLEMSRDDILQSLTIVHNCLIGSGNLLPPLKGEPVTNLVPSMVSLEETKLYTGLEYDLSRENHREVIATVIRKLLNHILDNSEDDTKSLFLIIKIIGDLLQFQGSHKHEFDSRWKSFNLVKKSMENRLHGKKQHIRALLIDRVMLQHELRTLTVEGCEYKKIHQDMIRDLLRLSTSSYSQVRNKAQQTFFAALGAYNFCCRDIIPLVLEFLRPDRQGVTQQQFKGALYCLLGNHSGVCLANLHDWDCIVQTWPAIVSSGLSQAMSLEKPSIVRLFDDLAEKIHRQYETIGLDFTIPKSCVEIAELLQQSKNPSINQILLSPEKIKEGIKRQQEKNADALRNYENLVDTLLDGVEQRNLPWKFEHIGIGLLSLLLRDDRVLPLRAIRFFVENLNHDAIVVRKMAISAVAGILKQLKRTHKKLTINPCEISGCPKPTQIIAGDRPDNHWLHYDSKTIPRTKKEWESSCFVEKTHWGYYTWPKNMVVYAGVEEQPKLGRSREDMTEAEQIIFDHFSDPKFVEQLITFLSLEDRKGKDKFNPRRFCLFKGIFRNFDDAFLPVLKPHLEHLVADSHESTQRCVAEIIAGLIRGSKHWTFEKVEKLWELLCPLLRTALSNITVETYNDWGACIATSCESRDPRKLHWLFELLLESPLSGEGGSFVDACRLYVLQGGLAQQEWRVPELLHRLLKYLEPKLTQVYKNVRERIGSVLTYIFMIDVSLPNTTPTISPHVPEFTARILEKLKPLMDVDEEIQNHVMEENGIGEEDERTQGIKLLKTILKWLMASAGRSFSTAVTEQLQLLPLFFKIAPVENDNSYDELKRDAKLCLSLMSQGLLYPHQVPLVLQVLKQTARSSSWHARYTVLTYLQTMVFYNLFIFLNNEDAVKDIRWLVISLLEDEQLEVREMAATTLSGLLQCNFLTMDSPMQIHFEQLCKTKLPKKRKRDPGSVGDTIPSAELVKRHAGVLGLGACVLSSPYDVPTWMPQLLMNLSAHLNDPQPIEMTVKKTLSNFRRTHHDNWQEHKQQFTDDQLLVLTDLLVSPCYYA
UniProt P49720: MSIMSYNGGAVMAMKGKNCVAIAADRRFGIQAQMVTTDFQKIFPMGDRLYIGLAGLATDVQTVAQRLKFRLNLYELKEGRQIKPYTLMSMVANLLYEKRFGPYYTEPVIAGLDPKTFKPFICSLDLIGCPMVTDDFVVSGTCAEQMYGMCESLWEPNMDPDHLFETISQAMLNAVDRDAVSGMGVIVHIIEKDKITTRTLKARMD
UniProt P62195, whole entry, looked up: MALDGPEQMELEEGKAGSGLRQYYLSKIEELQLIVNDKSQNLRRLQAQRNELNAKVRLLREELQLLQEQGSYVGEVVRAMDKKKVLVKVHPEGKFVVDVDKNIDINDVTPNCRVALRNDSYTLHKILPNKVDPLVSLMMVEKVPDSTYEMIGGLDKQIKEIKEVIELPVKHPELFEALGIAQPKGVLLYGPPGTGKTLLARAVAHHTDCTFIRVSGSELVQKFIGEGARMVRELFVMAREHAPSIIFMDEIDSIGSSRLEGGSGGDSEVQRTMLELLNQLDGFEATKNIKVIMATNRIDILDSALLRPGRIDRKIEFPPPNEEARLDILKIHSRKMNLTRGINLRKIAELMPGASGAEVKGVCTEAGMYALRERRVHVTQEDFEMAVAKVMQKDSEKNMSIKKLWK

[1] = compound: C/C(=N\NC(=O)C1=CC(=CC=C1)S(=O)(=O)N2CCOCC2)/C3=C(C=CC(=C3)Cl)O
Method in brief: as §1

[2] = compound: C1=CC(=CC=C1C2=NC3=C(N2)C=C(C=C3)C(=O)N)OC4=CC=C(C=C4)Cl
Method in brief: as §1

[3] = compound: C1=CC2=C(C=CC(=C2)/C=C\3/C(=O)NC(=NCC4=CC=CS4)S3)N=C1
Method in brief: as §1

[4] = compound: C1=CC2=NC=CN=C2C=C1/C=C/3\C(=O)NC(=O)S3
Method in brief: as §1

[5] = compound: C1=CC=C(C=C1)C2=NC(=C(N2)C3=CC=NC=C3)C4=CC(=C(C=C4)Cl)O
Method in brief: as §1

[6] = compound: C1=CC=C2C(=C1)C3=NNC4=CC=CC(=C43)C2=O
Method in brief: as §1

[7] = compound: C1CCN(C1)C(=O)NC2=CC=CC(=C2)NC3=NC=C(C(=N3)NCCC4=CN=CN4)Br
Method in brief: as §1

[8] = compound: C1CN(CCC1(CC2=CC=C(C=C2)Cl)N)C3=NC=NC4=C3C=CN4
Method in brief: as §1

IRAK-1-4 Inhibitor I = compound: C1COCCN1CCN2C3=CC=CC=C3N=C2NC(=O)C4=CC(=CC=C4)[N+](=O)[O-] [IRAK-1-4 Inhibitor I]
Method in brief: as §1

ibrutinib = compound: C=CC(=O)N1CCC[C@@H](n2nc(-c3ccc(Oc4ccccc4)cc3)c3c(N)ncnc32)C1 [ibrutinib]
Method in brief: as §1

[9] = compound: CC(=O)c1cnc2ccc(-c3cc(Cl)c(O)c(Cl)c3)nc2c1N[C@H]1CC[C@H](CN(C)C)CC1
Method in brief: as §1

ralimetinib = compound: CC(C)(C)Cn1c(N)nc2ccc(-c3[nH]c(C(C)(C)C)nc3-c3ccc(F)cc3)nc21 [ralimetinib]
Method in brief: as §1

[10] = compound: CC(C)(O)CC(=O)NCCn1ccc2ncnc(Nc3ccc(Oc4cccc(C(F)(F)F)c4)c(Cl)c3)c21
Method in brief: as §1

[11] = compound: CC(C)C1=C2N=C(C=C(N2N=C1)NCC3=CC=CC=C3)NCCCCCCN
Method in brief: as §1

[12] = compound: CC1=C(C(CC(=O)N1)C2=CC=C(C=C2)C(F)(F)F)C(=O)NC3=C(C=C4C(=C3)C=NN4)F
Method in brief: as §1

[13] = compound: CC1=C(C2=C(C=C1)C(=O)C3=CC=CC=C3N2CCCN)C
Method in brief: as §1

[14] = compound: CC1=C(C=C(C=C1)NC(=O)C2=CC(=CC=C2)C(C)(C)C#N)NC3=CC4=C(C=C3)N=CN(C4=O)C
Method in brief: as §1

[15] = compound: CC1=C(C=C(C=C1)NC(=O)C2=CC(=CC=C2)N(C)C)NC(=O)C3=CC=C(C=C3)O
Method in brief: as §1

[16] = compound: CC1=CC=C(C=C1)SC2=C3C=C(SC3=CN=C2)C(=O)N
Method in brief: as §1

Measured: log2 fold change

PSMG4 isoform 2 (UniProt Q5JS54)
inactive: erlotinib -0.043 | [1] 0.001 | [2] 0.033 | [3] -0.037 | [4] -0.014 | [5] -0.013 | [6] 0.042 | [7] -0.03 | [8] 0.044 | IRAK-1-4 Inhibitor I -0.028 | ibrutinib -0.061 | [9] -0.005 | ralimetinib 0.029 | [10] 0.023 | [11] -0.026 | [12] 0.041 | [13] 0.001 | [14] 0.068 | [15] 0.04 | [16] 0.026

PSMC1 (UniProt P62191)
inactive: erlotinib 0.007 | [1] -0.021 | [2] -0.037 | [3] -0.004 | [4] -0.031 | [5] 0.001 | [6] -0.012 | [7] 0.002 | [8] 0 | IRAK-1-4 Inhibitor I -0.018 | ibrutinib -0.013 | [9] -0.008 | ralimetinib 0.016 | [10] 0.01 | [11] -0.01 | [12] 0.002 | [13] 0.014 | [14] -0.001 | [15] 0.004 | [16] 0.012

PTAR1 (UniProt Q7Z6K3)
inactive: erlotinib 0.009 | [1] 0.036 | [2] 0.067 | [3] -0.062 | [4] -0.052 | [5] -0.04 | [6] -0.028 | [7] 0.011 | [8] -0.066 | IRAK-1-4 Inhibitor I 0.05 | ibrutinib 0.02 | [9] -0.012 | ralimetinib 0.004 | [10] -0.032 | [11] 0.002 | [12] -0.021 | [13] -0.01 | [14] 0.001 | [15] 0.023 | [16] -0.048

Random excerpt: 2 records from the list, in no set order.
PSMC1 (UniProt P62191)
inactive: erlotinib 0.007 | [1] -0.021 | [2] -0.037 | [3] -0.004 | [4] -0.031 | [5] 0.001 | [6] -0.012 | [7] 0.002 | [8] 0 | IRAK-1-4 Inhibitor I -0.018 | ibrutinib -0.013 | [9] -0.008 | ralimetinib 0.016 | [10] 0.01 | [11] -0.01 | [12] 0.002 | [13] 0.014 | [14] -0.001 | [15] 0.004 | [16] 0.012

PSMG4 isoform 2 (UniProt Q5JS54)
inactive: erlotinib -0.043 | [1] 0.001 | [2] 0.033 | [3] -0.037 | [4] -0.014 | [5] -0.013 | [6] 0.042 | [7] -0.03 | [8] 0.044 | IRAK-1-4 Inhibitor I -0.028 | ibrutinib -0.061 | [9] -0.005 | ralimetinib 0.029 | [10] 0.023 | [11] -0.026 | [12] 0.041 | [13] 0.001 | [14] 0.068 | [15] 0.04 | [16] 0.026

Later entries.

PTPN1 (UniProt P18031)
inactive: erlotinib -0.007 | [1] 0.065 | [2] -0.015 | [3] 0.025 | [4] -0.011 | [5] -0.005 | [6] -0.019 | [7] 0.027 | [8] -0.017 | IRAK-1-4 Inhibitor I 0.024 | ibrutinib -0.003 | [9] -0.024 | ralimetinib 0.018 | [10] 0.024 | [11] 0.006 | [12] -0.005 | [13] -0.002 | [14] 0.006 | [15] 0.049 | [16] 0.016

PUS1 (UniProt Q9Y606)
inactive: erlotinib 0.033 | [1] -0.174 | [2] 0.007 | [3] 0.01 | [4] 0.024 | [5] 0.005 | [6] -0.06 | [7] 0.016 | [8] -0.021 | IRAK-1-4 Inhibitor I 0.004 | ibrutinib 0.006 | [9] 0.004 | ralimetinib 0.013 | [10] -0.006 | [11] 0.005 | [12] -0.009 | [13] -0.032 | [14] 0.028 | [15] 0.031 | [16] -0.021

PTK7 isoform 6 (UniProt Q13308)
inactive: erlotinib -0.028 | [1] -0.1 | [2] 0.017 | [3] -0.013 | [4] -0.082 | [5] -0.016 | [6] 0.103 | [7] -0.046 | [8] 0.023 | IRAK-1-4 Inhibitor I 0.045 | ibrutinib 0.012 | [9] 0.085 | ralimetinib 0.022 | [10] -0.091 | [11] 0.003 | [12] -0.038 | [13] -0.053 | [14] 0.005 | [15] -0.005 | [16] -0.027

PSMB9 (UniProt P28065)
inactive: erlotinib 0.02 | [1] -0.112 | [2] 0.008 | [3] -0.062 | [4] -0.08 | [5] -0.061 | [6] 0.033 | [7] -0.084 | [8] 0.084 | IRAK-1-4 Inhibitor I -0.048 | ibrutinib -0.073 | [9] -0.196 | ralimetinib 0.052 | [10] -0.01 | [11] 0.011 | [12] 0.003 | [13] -0.047 | [14] 0.096 | [15] -0.027 | [16] -0.178

PSMB4 (UniProt P28070)
inactive: erlotinib 0.003 | [1] -0.036 | [2] 0.007 | [3] -0.004 | [4] 0.021 | [5] 0.006 | [6] -0.024 | [7] 0.007 | [8] 0.028 | IRAK-1-4 Inhibitor I 0.017 | ibrutinib -0.018 | [9] -0.01 | ralimetinib 0.011 | [10] -0.035 | [11] -0.029 | [12] -0.031 | [13] -0.016 | [14] 0.024 | [15] -0.022 | [16] -0.003

PSMB6 (UniProt P28072)
inactive: erlotinib -0.017 | [1] -0.012 | [2] 0.033 | [3] -0.028 | [4] -0.025 | [5] 0.006 | [6] -0.018 | [7] -0.002 | [8] 0.014 | IRAK-1-4 Inhibitor I 0.008 | ibrutinib -0.02 | [9] -0.017 | ralimetinib -0.012 | [10] -0.034 | [11] -0.027 | [12] -0.022 | [13] -0.019 | [14] -0.013 | [15] -0.021 | [16] -0.003

PTPN18 (UniProt Q99952)
inactive: erlotinib 0.013 | [1] 0.125 | [2] -0.007 | [3] 0.086 | [4] -0.15 | [5] 0.048 | [6] -0.096 | [7] -0.076 | [8] 0.041 | IRAK-1-4 Inhibitor I -0.025 | ibrutinib 0.107 | [9] -0.092 | ralimetinib 0.028 | [10] 0.029 | [11] 0.066 | [12] -0.024 | [13] -0.065 | [14] 0.049 | [15] 0.071 | [16] -0.056

PTTG1IP (UniProt P53801)
inactive: erlotinib -0.12 | [1] 0.092 | [2] -0.032 | [3] -0.016 | [4] -0.025 | [5] 0.188 | [6] -0.095 | [7] 0.039 | [8] -0.049 | IRAK-1-4 Inhibitor I -0.088 | ibrutinib -0.039 | [9] -0.079 | ralimetinib -0.089 | [10] -0.022 | [11] -0.066 | [12] 0.051 | [13] 0.123 | [14] -0.246 | [15] -0.009 | [16] -0.036

PSIP1 (UniProt O75475)
inactive: erlotinib -0.016 | [1] -0.067 | [2] 0.021 | [3] 0.011 | [4] -0.014 | [5] 0.022 | [6] -0.018 | [7] -0.016 | [8] 0.001 | IRAK-1-4 Inhibitor I -0.001 | ibrutinib -0.045 | [9] -0.002 | ralimetinib -0.019 | [10] -0.027 | [11] 0.001 | [12] 0.034 | [13] -0.034 | [14] 0.016 | [15] 0.005 | [16] 0.01

PTPN7 isoform 3 (UniProt P35236)
inactive: erlotinib 0.032 | [1] -0.002 | [2] -0.028 | [3] -0.06 | [4] -0.026 | [5] -0.008 | [6] -0.03 | [7] 0.009 | [8] 0.045 | IRAK-1-4 Inhibitor I 0.021 | ibrutinib 0.018 | [9] 0.027 | ralimetinib 0.066 | [10] -0.021 | [11] -0.044 | [12] -0.023 | [13] -0.053 | [14] -0.07 | [15] 0.005 | [16] 0.032

PSME4 (UniProt Q14997)
inactive: erlotinib 0.027 | [1] 0.031 | [2] -0.008 | [3] 0.044 | [4] -0.004 | [5] 0.027 | [6] -0.029 | [7] -0.013 | [8] 0.012 | IRAK-1-4 Inhibitor I 0.056 | ibrutinib -0.01 | [9] -0.014 | ralimetinib 0.027 | [10] -0.02 | [11] 0.007 | [12] -0.011 | [13] 0.019 | [14] 0.035 | [15] 0.046 | [16] 0.006

PSMB3 (UniProt P49720)
inactive: erlotinib 0.035 | [1] 0.004 | [2] -0.001 | [3] -0.022 | [4] 0.01 | [5] 0.015 | [6] 0.019 | [7] 0.048 | [8] -0.025 | IRAK-1-4 Inhibitor I 0.032 | ibrutinib -0.008 | [9] 0.011 | ralimetinib 0.011 | [10] -0.026 | [11] 0 | [12] -0.014 | [13] -0.01 | [14] -0.007 | [15] 0.001 | [16] -0.006

PSMC5 (UniProt P62195)
inactive: erlotinib 0.029 | [1] 0.006 | [2] 0.003 | [3] -0.003 | [4] 0 | [5] 0.005 | [6] 0.004 | [7] 0.04 | [8] -0.013 | IRAK-1-4 Inhibitor I -0.002 | ibrutinib -0.005 | [9] 0.043 | ralimetinib 0.009 | [10] 0 | [11] 0.021 | [12] 0.015 | [13] -0.03 | [14] 0 | [15] -0.02 | [16] 0.038

From the supplement of paper PMC10849652
